# No constants are given. Whether binding was seen depends on the method and setting.
# B1: translation recovery factor Trf from Sulfolobus solfataricus (protein, UniProt Q97VU8 1-124)
# chain: MREEEIRELYFKYFDENKLPFIQCNKCGHKFYYPRVLCPKCGSSDIEVRFSKGLGKIFAMTKVYRKDGSYVIYGIVELEEGFRMYSNIIEESQADINRKVEVIFKEINGKKYPLFKTVTHLHNF
# Target: translation recovery factor Trf from Sulfolobus solfataricus (S. solfataricus) (UniProt Q97VU8)
# Assay: SEC; analytical gel filtration; 50 mM BisTris pH 6.5, 150 mM NaCl; protein concentration 50 μM; marker proteins PhS11 (14.74 kDa), PhFap7 (20.18 kDa), PhFap7/PhS11 complex (34.92 kDa); both purified
binder,measurement,value
B1,binding,no binding (tested: 50 μM)

# — PMC6996347
